{"source": "patent US20040143023A1", "about": "“Materials and methods for synthesizing stilbenes” (priority 2000, published 2004)", "origin": "cited, not measured here", "tested_on": "P388 murine leukaemia cell line", "conditions": "read-out: IC50, inhibition of cell growth", "data": [{"smiles": "COc1ccc(/C=C\\c2cc(OC)c(OC)c(OC)c2)cc1O", "note": "[cis-combretastatin A-4, Z-1-(3′-Hydroxy-4′-methoxyphenyl)-2-(3″,4″,5″-trimethoxyphenyl)ethene]", "values": [{"measurement": "IC50", "value": 2.6, "unit": "nM"}]}]}
